Experimental data reported in article doi:10.1101/2022.11.16.516705.
These are yes or no findings as the source states them, for the method shown. In cells and extracts the contact can be indirect. Some binding calls cover weakened binding; strength is not graded here.

Chains of the proteins cited; added tags and fusions are not shown.
UniProt Q96P20: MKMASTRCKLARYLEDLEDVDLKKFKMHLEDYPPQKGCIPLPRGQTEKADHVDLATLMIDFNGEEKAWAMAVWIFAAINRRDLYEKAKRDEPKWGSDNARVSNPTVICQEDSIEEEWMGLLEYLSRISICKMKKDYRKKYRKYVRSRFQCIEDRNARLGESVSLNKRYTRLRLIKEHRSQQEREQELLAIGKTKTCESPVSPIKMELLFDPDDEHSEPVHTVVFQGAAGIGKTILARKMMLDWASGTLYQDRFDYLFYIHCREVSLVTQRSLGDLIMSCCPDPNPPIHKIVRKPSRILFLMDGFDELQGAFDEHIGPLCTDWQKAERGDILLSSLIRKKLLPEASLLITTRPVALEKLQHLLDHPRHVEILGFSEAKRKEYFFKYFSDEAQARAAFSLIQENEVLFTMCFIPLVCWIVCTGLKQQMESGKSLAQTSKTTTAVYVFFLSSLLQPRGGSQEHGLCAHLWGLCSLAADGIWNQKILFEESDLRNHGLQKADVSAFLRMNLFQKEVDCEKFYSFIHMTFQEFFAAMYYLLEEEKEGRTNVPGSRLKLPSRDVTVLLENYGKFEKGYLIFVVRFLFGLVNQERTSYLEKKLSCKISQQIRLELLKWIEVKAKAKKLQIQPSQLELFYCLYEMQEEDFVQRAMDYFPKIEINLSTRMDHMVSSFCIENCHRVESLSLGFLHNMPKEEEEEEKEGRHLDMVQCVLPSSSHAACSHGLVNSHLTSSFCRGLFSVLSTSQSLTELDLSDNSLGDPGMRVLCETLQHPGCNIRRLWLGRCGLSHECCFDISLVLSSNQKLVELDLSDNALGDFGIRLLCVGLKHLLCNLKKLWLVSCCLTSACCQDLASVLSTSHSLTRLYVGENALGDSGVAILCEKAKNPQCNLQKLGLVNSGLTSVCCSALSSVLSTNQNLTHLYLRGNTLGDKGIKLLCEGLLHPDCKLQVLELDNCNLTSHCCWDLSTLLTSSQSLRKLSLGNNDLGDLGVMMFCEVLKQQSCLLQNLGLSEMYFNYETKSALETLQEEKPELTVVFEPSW
UniProt P11142: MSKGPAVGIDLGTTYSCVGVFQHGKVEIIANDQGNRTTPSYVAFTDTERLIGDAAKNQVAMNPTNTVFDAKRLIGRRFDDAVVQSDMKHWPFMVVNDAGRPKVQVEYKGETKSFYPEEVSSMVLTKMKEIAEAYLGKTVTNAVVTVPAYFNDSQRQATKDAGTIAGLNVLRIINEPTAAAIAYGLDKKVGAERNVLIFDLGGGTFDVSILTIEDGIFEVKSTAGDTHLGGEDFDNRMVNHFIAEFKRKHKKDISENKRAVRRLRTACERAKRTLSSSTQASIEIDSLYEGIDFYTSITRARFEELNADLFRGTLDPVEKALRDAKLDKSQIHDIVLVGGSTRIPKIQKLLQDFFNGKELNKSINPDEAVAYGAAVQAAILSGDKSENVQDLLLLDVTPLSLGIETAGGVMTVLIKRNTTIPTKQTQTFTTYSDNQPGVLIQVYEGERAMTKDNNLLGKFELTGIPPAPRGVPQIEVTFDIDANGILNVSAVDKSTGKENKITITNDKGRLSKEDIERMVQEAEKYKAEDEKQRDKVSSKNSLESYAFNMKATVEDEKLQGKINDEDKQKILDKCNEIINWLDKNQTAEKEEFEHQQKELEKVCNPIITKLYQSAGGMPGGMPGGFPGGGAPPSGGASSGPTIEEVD

How the values were obtained:
[1] = target: endogenous NLRP3 (human (endogenous in THP1)) (UniProt Q96P20); test: co-IP
[2] = target: GFP-tagged wild type NLRP3 (UniProt Q96P20); test: co-IP

## HSC70 (HSPA8), endogenous in THP1 cells (from UniProt P11142 1-646)
[1]
  binding: binds

## HSC70 (HSPA8), endogenous in HEK293T cells (from UniProt P11142 1-646)
[2]
  binding: binds
